According to PubChem BioAssay AID624297 (National Center for Advancing Translational Sciences (NCATS), 2012):
The whole screen tested about 340,000 compounds, of which about 6,200 (1.8%) were called active. The inconclusive results got no clear call from the source; some entries with a clear call stand among them for comparison. The call rests on the fitted dose curve; in most records, active means well fitted activation curve with a large enough effect; inconclusive means small, poorly fitted or top-dose-only effect; inactive means no such curve, though single readings can be large or run the other way. Potencies beside an inconclusive call are fits to weak or partial responses and may not hold up.

Assay: A quantitative high throughput screen for small molecules that induce DNA re-replication in SW480 colon adenocarcinoma cells. Further: nearly all actives have a fitted effect of over 55% in size. On re-replication activation: % of control where 0% means no effect.
Conditions: Hoechst DNA content imaging, 48 h; re-replication activation: at 46.1 µM (top of the series) unless noted
How it was run: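 Compounds, transferred as 23 nL by pin tool, were incubated with cells for 48 hr; DNA content per nucleus was then quantified by Hoechst staining and fluorescence plate imaging.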
Potency means the concentration at half of the fitted maximal effect.

SMILES | re-replication activation | Potency
O=C(Cc1ccccc1F)Nc1cccc(S(=O)(=O)N2CCOCC2)c1 | inactive: 3.53% | 
COc1cc(OC)c(/C=N/NC(=O)c2ccncc2)cc1Br | inactive: 0.782% | 
COc1ccc(-n2nc(C(=O)NCC(=O)N(C)Cc3ccccc3)c3ccccc3c2=O)cc1OC | inactive: -2.08% | 
OC(CNC1CCCCC1)CNC1CCCCC1 |  | inconclusive: 6.51 µM [activator, single point]
COc1ccc(CC(=O)Nc2ccc(S(=O)(=O)N3CCCC3)cc2)c(OC)c1 | inconclusive: 44.9% [activator] | 
CCNc1nc(NCC)nc(N/N=C/c2ccc([N+](=O)[O-])o2)n1 |  | inconclusive: 32.6 µM [activator, partial curve, poor fit]
COc1ccccc1NC(=O)Nc1sccc1-c1nc2ccccc2s1 |  | inconclusive: 3.66 µM [activator, partial curve, poor fit]
COc1cccc(-c2nc3c(c(SCC(=O)N4CCOCC4)n2)Cc2c(CO)cnc(C)c2O3)c1 | inactive: -7.41% | 
Cc1cccc(C)c1NC(=O)CN1CCN(CCCC(c2ccc(F)cc2)c2ccc(F)cc2)CC1 |  | inconclusive: 11.4 µM [activator, partial curve]
CC(C)CNS(=O)(=O)c1ccc(CCC(=O)Nc2cc(Cl)ccc2Oc2ccccc2)cc1 |  | active: 7.31 µM
O=C(C#Cc1ccccc1)Nc1cccc(F)c1 |  | inconclusive: 20.6 µM [activator, single point]
FC(F)(F)c1cnc(C(c2ccccn2)c2ncn[nH]2)c(Cl)c1 (stereo not given) |  | inconclusive: 16.4 µM [activator, partial curve, poor fit]
COc1ccc(NC(=O)CN2CCN(CC(=O)Nc3ccccc3F)CC2)c(OC)c1 | inactive: 10.5% | 
NC(=S)N/N=C/c1coc2c(ccc3ccccc32)c1=O | inactive: 15.6% | 
CCCn1c(-c2ccccc2)cc(SC)c(C#N)c1=O |  | active: 5.8 µM
Cc1ccc(S(=O)(=O)N2CCN(CCc3ccncc3)CC2)cc1 | inactive: 3.2% | 
CC1CCN(c2ccc3c(c2)S(=O)(=O)c2cccc(C(=O)NCc4ccc(F)cc4)c2C3=O)CC1 |  | inconclusive: 23.1 µM [activator, partial curve, poor fit]
CCCCN(CCO)c1ncnc2sc(-c3ccccc3)cc12 |  | inconclusive: 25.9 µM [activator, single point]
CCCCN(C(=O)c1cccc(S(=O)(=O)N2CCN(C)CC2)c1)c1c(N)n(CC(C)C)c(=O)[nH]c1=O |  | inconclusive: 2.06 µM [activator, partial curve, poor fit]
Cc1cccc(C2CN(C)CCc3c2cc(O)c(O)c3Cl)c1 (stereo not given) |  | inconclusive: 20 µM [activator, single point]

Entries from the list above containing a thiophene ring, fused or not, in the order listed:
SMILES | re-replication activation | Potency
COc1ccccc1NC(=O)Nc1sccc1-c1nc2ccccc2s1 |  | inconclusive: 3.66 µM [activator, partial curve, poor fit]
CCCCN(CCO)c1ncnc2sc(-c3ccccc3)cc12 |  | inconclusive: 25.9 µM [activator, single point]
